Measurements taken from patent publication US12139520B2 (priority 2020, dated 2024).
Not every detail of the peptide structures is certain; ends, links or a residue may be inferred. For some of these results: At least one compound was matched to its structure with a doubt left. Numbered stars: 1 amine (or outer) side, 2 acyl side, 3 side chain; on linkers, the order of the positions; unused ones are H or OH. Bridge positions count the residues as written; N and C are the ends. Square brackets hold non-standard residues; d marks the D form. Side chains are listed from the residue outwards. Peptide text beside a SMILES is read from it. * marks the point of attachment. C20 diacid = O=C(O)CCCCCCCCCCCCCCCCCCC(=O)*; γGlu = O=C(O)[C@H](CCC(=O)[*:2])N[*:1]; Hyp = O=C(O)[C@@H]1C[C@@H](O)CN1; AEEA = NCCOCCOCC(=O)O

Protein sequences, listed by entry. Tags and fused reporters are not part of them. Residues count along the entry.
UniProt O60895, 43-175 partner: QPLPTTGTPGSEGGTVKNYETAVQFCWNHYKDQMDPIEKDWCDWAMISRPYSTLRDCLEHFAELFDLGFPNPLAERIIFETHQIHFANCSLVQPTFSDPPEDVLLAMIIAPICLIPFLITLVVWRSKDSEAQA
UniProt Q16602, 23-461: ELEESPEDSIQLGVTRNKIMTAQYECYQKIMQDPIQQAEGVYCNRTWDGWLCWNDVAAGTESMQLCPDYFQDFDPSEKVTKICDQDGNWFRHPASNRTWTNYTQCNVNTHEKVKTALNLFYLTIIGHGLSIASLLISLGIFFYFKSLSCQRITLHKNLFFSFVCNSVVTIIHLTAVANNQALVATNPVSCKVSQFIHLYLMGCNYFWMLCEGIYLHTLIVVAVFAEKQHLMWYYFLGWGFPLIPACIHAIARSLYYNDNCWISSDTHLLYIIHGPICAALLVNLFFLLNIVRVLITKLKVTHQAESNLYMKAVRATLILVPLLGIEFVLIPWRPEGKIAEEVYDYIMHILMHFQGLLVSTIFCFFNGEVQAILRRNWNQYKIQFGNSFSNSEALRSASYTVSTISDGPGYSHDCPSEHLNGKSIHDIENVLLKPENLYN

How the values were obtained:
[1] = molecular target: T1, hAMY3 receptor (Homo sapiens, UniProt O60896+P30988); assay: cAMP assay for in vitro receptor activation, hAMY3-R; format: cell-based; settings: read-out: hAMY3R EC50
T1 sequence (P30988 25-474): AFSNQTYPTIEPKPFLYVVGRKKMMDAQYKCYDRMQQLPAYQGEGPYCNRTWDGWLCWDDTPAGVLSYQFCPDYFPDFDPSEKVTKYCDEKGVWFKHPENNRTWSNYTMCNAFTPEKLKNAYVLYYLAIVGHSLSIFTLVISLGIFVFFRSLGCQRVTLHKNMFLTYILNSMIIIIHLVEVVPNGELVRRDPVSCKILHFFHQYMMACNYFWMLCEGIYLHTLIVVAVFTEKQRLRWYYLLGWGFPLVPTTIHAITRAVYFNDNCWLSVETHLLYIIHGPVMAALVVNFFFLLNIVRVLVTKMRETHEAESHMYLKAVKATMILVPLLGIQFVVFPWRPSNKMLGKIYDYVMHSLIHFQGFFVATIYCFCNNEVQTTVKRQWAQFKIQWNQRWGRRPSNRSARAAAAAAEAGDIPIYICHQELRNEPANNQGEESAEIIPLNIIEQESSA
T1 sequence (O60896 24-148 partner): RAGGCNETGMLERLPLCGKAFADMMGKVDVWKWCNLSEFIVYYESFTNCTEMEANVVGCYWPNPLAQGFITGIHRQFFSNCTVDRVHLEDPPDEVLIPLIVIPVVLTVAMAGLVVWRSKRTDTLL
Description: (§1) General Protocols for cAMP Assays for Measuring In Vitro Receptor Activation
Cells stably overexpressing the hAMY3 receptor were obtained from Ogeda (now Astellas Pharma), sub-cloned and a monoclonal cell-line with an appropriate assay-window was expanded, aliquoted and frozen.
An aliquot was thawed and plated in DPBS with 0.05% casein and 0.5 mM IBMX as 2000 cells/well in a 384-well format. The cells were then immediately stimulated for 30 min at room temperature with graded doses of test compound using human amylin (Bachem, cat no. H-7905) as a positive control. cAMP accumulation was measured using a Cisbio assay for Gs coupled receptors (cat. no. 62AM4PEC), where the assay reagents were added as per the manufacturer's instructions and time-resolved fluorescence energy transfer recorded after one hour.

[2] = molecular target: hAM1 receptor (Homo sapiens, UniProt O60895+Q16602); assay: cAMP assay for in vitro receptor activation, hAM1-R; format: cell-based; settings: read-out: hAM1R EC50
Description: as §1
Cells stably overexpressing the hAM1 receptor were obtained from Ogeda (now Astellas Pharma), sub-cloned and a monoclonal cell-line with an appropriate assay-window was expanded, aliquoted and frozen. An aliquot was thawed and plated in DPBS with 0.05% casein and 0.5 mM IBMX as 8000 cells/well in a 384-well format.

[3] = Physical stability of peptide analogues (Thioflavin T fibrillation); format: physicochemical; settings: maximum ThT signal normalized between hAMY maximum and buffer background; 40° C., shaking, four days; pH 7 per table title
Description: General Protocols for Determination of Physical Stability of Peptide Analogues
Peptides were dissolved in buffers (50 mM sodium acetate at pH 4 or 50 mM sodium phosphate at pH 7) and incubated for one hour. The samples were then divided into two replicates of 80 μl in a black 384 well plate (μ-clear, Greiner Bio-One) and mixed with Thioflavin T (ThT) to a final concentration of 4 μM. The plate was sealed and placed in a plate reader (CLARIOstar, BMG) where the temperature was set at 40° C. during the course of the experiment. The samples were further stressed by shaking the plate at 700 rpm (linear) for five minutes before every measurement. The fluorescence was measured every 10 min for four days by exciting the ThT at 450 nm and measuring the emission at 480 nm. For each peptide, the ThT signal over time was smoothened using Local Polynomial Regression fitting (LOESS) as implemented in the statistical programming environment R. For the smoothened data, the maximum ThT signal was normalized in percent between the maximum ThT signal for hAMY and the buffer background.

[4] = Acute food intake study in lean rats; format: in vivo, rat; settings: 10 nmol/kg, single SC injection, lean healthy rats
Description: General Protocols for Acute Food Intake Study
The effect on cumulative food intake was measured in male Sprague Dawley rats (6 weeks of age, Taconic, Denmark) following a single dose using a fully automated food intake monitoring system (HM-2; MBRose ApS, Faaborg, Denmark), allowing for advanced synchronous real-time monitoring of food intake behaviour of individual animals. The animals were housed in groups of 4 in a light-, temperature-, and humidity-controlled room (a 12/12 LD cycle, lights on at 02:00 AM; 22±2° C.; 50% relative humidity). The mice had ad libitum access to regular chow diet (Altromin 1324, Brogaarden A/S, Lynge, Denmark) and domestic quality tap water. Mice arrived at day 7, and a minimum of 5 days of habituation to the system was allowed prior to beginning of the study. During these days, the animals were handled daily to accustom them to the experimental paradigm. On the day of dosing, the animals were randomized into groups according to body weight. Animals were fasted for four hours prior to dosing. Animals were dosed SC 30 or 180 min prior to lights out, and food intake data were collected automatically for a total of 48 h post-dosing with automatic food recordings every 5 min.

SMILES	EC50 [1]	EC50 [2]	Max ThT signal (%) [3]	cumulative food intake, % to vehicle [4]	Average cumulative food intake ([4]; up to 48 h, P < 0.001 vs vehicle)
CC[C@H](C)[C@H](NC(=O)[C@H](CCC(N)=O)NC(=O)[C@H](Cc1c[nH]cn1)NC(=O)[C@H](C)NC(=O)[C@H](CC(C)C)NC(=O)[C@H](CCCNC(=N)N)NC(=O)[C@H](CCC(N)=O)NC(=O)[C@@H](NC(=O)[C@@H](NC(=O)[C@@H]1CSSC[C@H](NC(=O)[C@@H](N)CCCCN)C(=O)N[C@@H](CC(N)=O)C(=O)N[C@@H]([C@@H](C)O)C(=O)N[C@@H](C)C(=O)N[C@@H]([C@@H](C)O)C(=O)N1)[C@@H](C)O)C(C)C)C(=O)N[C@@H](Cc1ccc(O)cc1)C(=O)N[C@@H](CCC(N)=O)C(=O)N[C@@H](Cc1ccccc1)C(=O)N[C@H](C(=O)N[C@@H](CCCCN)C(=O)N[C@@H](CC(=O)O)C(=O)N[C@@H](CCCCN)C(=O)N[C@@H](CC(=O)O)C(=O)N[C@@H](CC(N)=O)C(=O)N[C@H](C(=O)N[C@@H](C)C(=O)N1CCC[C@H]1C(=O)N1CCC[C@H]1C(=O)N[C@H](C(=O)N[C@@H](CC(N)=O)C(=O)N[C@H](C(=O)NCC(=O)N[C@@H](CO)C(=O)N[C@@H](CC(N)=O)C(=O)NCC(=O)N1C[C@H](O)C[C@H]1C(N)=O)C(C)C)[C@@H](C)O)C(C)C)[C@@H](C)O [compound 29] (H-KCNTATCTVQRLAHQIYQFTKDKDNVAPPTNVGSNG[Hyp]-NH2; disulfide 2-7; N-terminus assumed)	8 pM	> 5 µM	–	–	–
CC[C@H](C)[C@H](NC(=O)[C@H](CCC(N)=O)NC(=O)[C@H](Cc1c[nH]cn1)NC(=O)[C@H](C)NC(=O)[C@H](CC(C)C)NC(=O)[C@H](CCCNC(=N)N)NC(=O)[C@H](CCC(N)=O)NC(=O)[C@@H](NC(=O)[C@@H](NC(=O)[C@@H]1CSSC[C@H](NC(=O)CN)C(=O)N[C@@H](CCCNC(=N)N)C(=O)N[C@@H](Cc2ccccc2)C(=O)NCC(=O)N[C@@H]([C@@H](C)O)C(=O)N1)[C@@H](C)O)C(C)C)C(=O)N[C@@H](Cc1ccc(O)cc1)C(=O)N[C@@H](CCC(N)=O)C(=O)N[C@@H](Cc1ccccc1)C(=O)N[C@H](C(=O)N[C@@H](CC(=O)O)C(=O)N[C@@H](CCCCN)C(=O)N[C@@H](CC(=O)O)C(=O)N[C@@H](CCCCN)C(=O)N[C@@H](CC(=O)O)C(=O)N[C@@H](CC(N)=O)C(=O)N[C@H](C(=O)N[C@@H](C)C(=O)N1CCC[C@H]1C(=O)N[C@@H](CCCNC(=N)N)C(=O)N[C@H](C(=O)N[C@@H](CC(N)=O)C(=O)N[C@H](C(=O)NCC(=O)N1CCC[C@H]1C(=O)N[C@@H](CCC(N)=O)C(=O)NCC(=O)N1C[C@H](O)C[C@H]1C(N)=O)C(C)C)[C@@H](C)O)C(C)C)[C@@H](C)O [compound 70] (H-GCRFGTCTVQRLAHQIYQFTDKDKDNVAPRTNVGPQG[Hyp]-NH2; disulfide 2-7; N-terminus and C-terminus assumed)	13 pM	≥ 2.98 µM	8.800%	61.18%	24.9 g
CC[C@H](C)[C@H](NC(=O)[C@H](CC(N)=O)NC(=O)[C@@H](NC(=O)[C@H](CCCNC(=N)N)NC(=O)[C@@H]1CCCN1C(=O)[C@H](C)NC(=O)[C@@H](NC(=O)[C@H](CC(N)=O)NC(=O)[C@H](CC(=O)O)NC(=O)[C@H](CCCCN)NC(=O)[C@H](CC(=O)O)NC(=O)[C@H](CCCCN)NC(=O)[C@H](CC(=O)O)NC(=O)[C@@H](NC(=O)[C@H](Cc1ccccc1)NC(=O)[C@H](CCC(N)=O)NC(=O)[C@H](Cc1ccc(O)cc1)NC(=O)[C@@H](NC(=O)[C@H](CCC(N)=O)NC(=O)[C@H](Cc1c[nH]cn1)NC(=O)[C@H](C)NC(=O)[C@H](CC(C)C)NC(=O)[C@H](CCCNC(=N)N)NC(=O)[C@H](CCC(N)=O)NC(=O)[C@@H](NC(=O)[C@@H](NC(=O)[C@@H]1CSSC[C@H](NC(=O)CN)C(=O)N[C@@H](CCCNC(=N)N)C(=O)N[C@@H]([C@@H](C)O)C(=O)NCC(=O)N[C@@H]([C@@H](C)O)C(=O)N1)[C@@H](C)O)C(C)C)[C@@H](C)CC)[C@@H](C)O)C(C)C)[C@@H](C)O)C(=O)NCC(=O)N1CCC[C@H]1C(=O)N[C@@H](CCC(N)=O)C(=O)NCC(=O)N[C@@H](Cc1ccc(O)cc1)C(N)=O [compound 160] (H-GCRTGTCTVQRLAHQIYQFTDKDKDNVAPRTNIGPQGY-NH2; disulfide 2-7; N-terminus and C-terminus assumed)	–	≥ 2.98 µM	21.500%	–	–
CC[C@H](C)[C@H](NC(=O)[C@H](CCC(N)=O)NC(=O)[C@H](CCC(=O)O)NC(=O)[C@H](C)NC(=O)[C@H](CC(C)C)NC(=O)[C@H](CCCNC(=N)N)NC(=O)[C@H](CCC(N)=O)NC(=O)[C@@H](NC(=O)[C@@H](NC(=O)[C@@H]1CSSC[C@H](NC(=O)[C@H](CCCCN)NC(=O)[C@H](CCCCNC(=O)COCCOCCNC(=O)CC[C@H](NC(=O)COCCOCCNC(=O)CCCCCCCCCCCCCCCCCCC(=O)O)C(=O)O)NC(=O)COCCOCCNC(=O)CC[C@H](NC(=O)COCCOCCNC(=O)CCCCCCCCCCCCCCCCCCC(=O)O)C(=O)O)C(=O)N[C@@H](CC(N)=O)C(=O)N[C@@H]([C@@H](C)O)C(=O)N[C@@H](C)C(=O)N[C@@H]([C@@H](C)O)C(=O)N1)[C@@H](C)O)C(C)C)C(=O)N[C@@H](Cc1ccc(O)cc1)C(=O)N[C@@H](CCC(N)=O)C(=O)N[C@@H](Cc1ccccc1)C(=O)N[C@H](C(=O)N[C@@H](CC(=O)O)C(=O)N[C@@H](CCCCN)C(=O)N[C@@H](CC(=O)O)C(=O)N[C@@H](CCCCN)C(=O)N[C@@H](CC(=O)O)C(=O)N[C@@H](CC(N)=O)C(=O)N[C@H](C(=O)N[C@@H](C)C(=O)N1CCC[C@H]1C(=O)N1CCC[C@H]1C(=O)N[C@H](C(=O)N[C@@H](CC(N)=O)C(=O)N[C@H](C(=O)NCC(=O)N[C@@H](CO)C(=O)N[C@@H](CC(N)=O)C(=O)NCC(=O)N1C[C@H](O)C[C@H]1C(N)=O)C(C)C)[C@@H](C)O)C(C)C)[C@@H](C)O [compound 233] ({C20 diacid-AEEA-γGlu-AEEA}-K([AEEA-γGlu-AEEA-C20 diacid])KCNTATCTVQRLAEQIYQFTDKDKDNVAPPTNVGSNG[Hyp]-NH2; disulfide 3-8; C-terminus assumed)	–	> 5 µM	–	–	–
